In PubChem BioAssay AID2685 (National Center for Advancing Translational Sciences (NCATS), 2010):
This is one part of the list. The main result of the screen is listed elsewhere. These columns were measured beside it and carry no call. Compounds called inactive in the main read-out are mostly missing here. The note in brackets gives the kind of curve behind each potency; many fits are weak.

Assay: qHTS Assay for Lipid Storage Modulators in Drosophila S3 Cells;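 for cell number change: cells counted by Cell Tracker Red CMTPX staining in the red channel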
Conditions: BODIPY lipid droplet fluorescence, 18-24 h; for cell number change: measured here: cell count max response, cells fed with added oleic acid
Summary of the method: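 Drosophila S3 cells got compounds at several concentrations plus oleic acid (400 uM solution). Laser-scanning cytometry with 488 nm excitation read lipid droplets at 500-530 nm and cells at 575-640 nm. Percent activity was relative to 20 uM Triacsin C.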

[1] = measured here: cell number channel AC50, cells fed with added oleic acid
[2] = measured here: lipid fluorescence (Fed channel) AC50, cells fed with added oleic acid

SMILES	cell number change [%]	AC50 [1]	AC50 [2]
O=C(N/N=C/C(c1ccccc1)c1ccccc1)c1ccccc1F	-41.5	10.3 µM [falling, single point]	
CCN(CC)CCCNC(=O)c1oc2ccc(S(=O)(=O)N3CC(C)CC(C)C3)cc2c1C (stereo unspecified)	-4.96		29.1 µM [rising, single point]
CCOC(=O)c1sc(NC(=O)CSc2nnc(C)s2)c(C(=O)OCC)c1C	-5.85		2.06 µM [rising, partial curve, poor fit]
O=C(CNC(=O)c1cccc(F)c1)N/N=C/c1cc(Br)ccc1OC(=O)/C=C/c1ccco1	-0.392		3.66 µM [falling, partial curve, poor fit]
O=C(CCn1c(=O)oc2ccccc21)NCCCN1CCCC1=O	-42.2	5.8 µM [falling, full curve]	
O=C(NC1CC1)C1CCN(C2CCN(C(=O)c3ccc4cccc(F)c4n3)CC2)CC1	-7.04		4.11 µM [falling, single point]
CN(C)C(=O)/C(=C/c1ccc(-c2cccc([N+](=O)[O-])c2)o1)NC(=O)c1ccccc1	-26.4		
Cc1ccc(S(=O)(=O)N2CCC(C)CC2)cc1	-9.94		
COc1ccc(N2CCN(C(=O)Cc3coc4cc(C)ccc34)CC2)cc1		0.058 µM [falling, full curve, poor fit]	
COc1ccc(CNC(=O)C(=O)NCCC2CCCCN2S(=O)(=O)c2cccs2)cc1 (stereo unspecified)	-33.3	16.4 µM [falling, single point]	29.1 µM [falling, single point]
O=C(CCCCCn1c(=O)[nH]c2ccsc2c1=O)NCc1ccc2c(c1)OCO2	-11.5		8.2 µM [falling, partial curve]
Cc1ccc2c(c1)-c1cc(C)nn1C(c1sccc1C)N2 (stereo unspecified)	-24.3		
O=C(NCc1ccccc1)[C@H]1C[C@@H]1[C@H](NP(=O)(c1ccccc1)c1ccccc1)c1ccccc1	44.9	0.461 µM [rising, full curve]	7.31 µM [falling, single point]
COc1ccc(C(=O)NC23CC4CC(CC(C4)C2)C3)cc1OC	-8.21		
COc1cccc(NC(=O)CN(C)C(C)C(=O)Nc2cc([N+](=O)[O-])ccc2Cl)c1 (stereo unspecified)	45.6	20.6 µM [rising, single point]	
Cc1ccc(C(=O)c2c3ccccc3[n+]([O-])n2CCC(N)=O)cc1	5.99		6.51 µM [falling, single point]
Cc1cc(C)n(C(=O)c2ccc([N+](=O)[O-])cc2Cl)n1	9.09		0.13 µM [rising, full curve, poor fit]
Cc1ccsc1C(=O)OC(C)C(=O)NC1CCCCC1C (stereo unspecified)	-4.42		
C=CCn1c(SCC(=O)N(C)C2CCS(=O)(=O)C2)nnc1-c1ccncc1 (stereo unspecified)	38.2	0.231 µM [rising, full curve, poor fit]	6.51 µM [falling, single point]
CCn1ncc(C2=NOC(C(=O)N3CCC(C(N)=O)CC3)C2)c1C (stereo unspecified)	-6.49		0.731 µM [falling, single point]

3 entries from above, ordered by length of the SMILES, ascending.
SMILES	cell number change [%]	AC50 [1]	AC50 [2]
COc1ccc(C(=O)NC23CC4CC(CC(C4)C2)C3)cc1OC	-8.21		
COc1ccc(N2CCN(C(=O)Cc3coc4cc(C)ccc34)CC2)cc1		0.058 µM [falling, full curve, poor fit]	
O=C(NCc1ccccc1)[C@H]1C[C@@H]1[C@H](NP(=O)(c1ccccc1)c1ccccc1)c1ccccc1	44.9	0.461 µM [rising, full curve]	7.31 µM [falling, single point]

Further entries.

SMILES	cell number change [%]	AC50 [1]	AC50 [2]
NS(=O)(=O)c1ccc(S(=O)(=O)N(CCc2ccccc2)Cc2ccccn2)cc1	-11.1		29.1 µM [rising, single point]
O=C(CN1CCC(NC(=O)Cc2ccccc2)CC1)Nc1ccccc1Br	23.5		4.61 µM [rising, single point]
O=S(=O)(NCCN1CCCC1)c1cccc2cccnc12	0.759		
COc1ccc(CCNC(=O)CN(c2ccccc2OC)S(C)(=O)=O)cc1	-9.4	1.64 µM [falling, partial curve, poor fit]	23.1 µM [falling, partial curve]
CCCCP(=O)(CCCC)Cc1ccccc1O	-22.8		0.164 µM [falling, full curve]
CCC(=O)N1N=C(c2ccc(C)o2)CC1c1ccc(N(C)C)cc1 (stereo unspecified)	-7.23	6.51 µM [rising, single point]	
Cc1cc(C)c(C)c(C(=O)c2ccccc2C(=O)O)c1C	33.5	4.61 µM [rising, partial curve, poor fit]	
COc1cc(CSC)nc(-c2ccccc2)n1	7.73		
COc1ccc(S(=O)(=O)N2CCCCC2)cc1NC(=O)c1cnc(C)cn1	19.2		0.731 µM [falling, partial curve]
O=C(c1cc2ccccc2o1)N1CCN(c2ccccn2)CC1	-1.08		
CCOC(=O)CSc1ncnc2c1nnn2-c1ccc(F)cc1	-0.418		0.517 µM [falling, full curve, poor fit]
CNc1nc(N)c([N+](=O)[O-])c(Nc2cccc(F)c2)n1	25		
CN1C=C/C(=C\c2cc[n+](C)c3ccccc23)c2ccccc21	-80.1	9.2 µM [falling, partial curve]	7.31 µM [falling, partial curve]
O=C(CCCC(=O)c1ccc(O)cc1)c1ccc(O)cc1	3.83		29.1 µM [rising, single point]
COC(=O)/C=C(\Oc1ccccc1)C1(O)CCCCC1	-13.7		0.00517 µM [falling, full curve, poor fit]
COc1ccc(S(=O)(=O)Nc2c(C)n(C)n(-c3ccccc3)c2=O)cc1	21.9	1.64 µM [falling, partial curve, poor fit]	
COc1cccc(NC(=O)c2ccccc2-c2nc(-c3cccc(C)c3)no2)c1	4.33		
CC1(C)CC(NS(=O)(=O)OCC(Cl)(Cl)Cl)c2cc(C#N)ccc2O1 (stereo unspecified)	10.7		
COc1ccc(CNC(=O)COC(=O)c2c(C)nn(-c3ccccc3)c2C)cc1OC	8.42		
CCN1CCN(CCCNC(=O)c2ccc(/C=C3/Oc4ccccc4N(Cc4cccc(C)c4)C3=O)cc2)CC1	20.3	3.66 µM [rising, single point]	23.1 µM [rising, partial curve]

SMILES	cell number change [%]	AC50 [1]	AC50 [2]
N#CCSc1nnc(COc2ccccc2)n1-c1ccccc1	-21.7		29.1 µM [falling, single point]
COC(=O)Cn1cc(S(=O)(=O)NCc2ccc(C)cc2)c2cc([N+](=O)[O-])ccc21	24.3	0.82 µM [rising, full curve, poor fit]	
CCCC(c1nnnn1Cc1ccc2c(c1)OCO2)N1CCC(C(N)=O)CC1 (stereo unspecified)	-13.1	6.51 µM [falling, single point]	7.31 µM [falling, single point]
O=C(CN(C(=O)CNS(=O)(=O)c1ccc(F)cc1)c1ccc(F)cc1)NCc1ccco1	-19.2	0.0082 µM [falling, full curve, poor fit]	5.17 µM [falling, single point]
Oc1c(C=Nc2cccc3cccnc23)sc2ccccc12	-19.9		
CCOC(=O)/C(=C/c1ccc(N2CCC(c3ccccc3)=N2)cc1)C(C)=O	19.5	3.66 µM [rising, partial curve, poor fit]	1.84 µM [rising, full curve, poor fit]
Nc1nccnc1C(=O)OCC(=O)NCCc1ccc(Cl)cc1	-39.6	0.184 µM [falling, full curve]	0.13 µM [falling, full curve, poor fit]
CN1c2ccc([N+](=O)[O-])cc2N(C)C1(C)c1ccccc1 (stereo unspecified)	-44.2	29.1 µM [falling, single point]	6.51 µM [falling, partial curve]
C/C(CC(=O)Nc1ccc(Cl)cc1Cl)=N\NC(=O)c1cnccn1	23.4		
CCCCN(C(=O)c1ccc(N(C)S(=O)(=O)c2ccc(C)cc2)cc1)c1c(N)n(CCCC)c(=O)[nH]c1=O	19.9		14.6 µM [rising, single point]
CC(C)(C)c1ccc(C(=O)NNC(=S)NCC2CCCO2)cc1 (stereo unspecified)	0.705		18.4 µM [rising, single point]
O=C(COC(=O)c1ccc(S(=O)(=O)N2CCOCC2)cc1)NC1CCCC1	-21.6		3.66 µM [falling, full curve]
CCCc1nc(SCC(=O)NCc2ccco2)c2c(=O)n(C)c(=O)n(C)c2n1		0.082 µM [rising, full curve]	
Cc1nnc(NC(=O)c2cccc(S(=O)(=O)N3CCc4ccccc43)c2)s1	23.4		29.1 µM [rising, single point]
O=C(COc1ccccc1Cl)Nc1ccc2[nH]c(=O)[nH]c2c1	54.6	5.17 µM [rising, full curve]	18.4 µM [rising, partial curve]
O=C(NC1CCCCCCC1)c1cc(COc2ccc3ncccc3c2)on1	-33.8	29.1 µM [falling, partial curve]	25.9 µM [falling, partial curve, poor fit]
CN(C)c1ccc(C(CNS(=O)(=O)c2ccc(F)cc2)c2c[nH]c3ccccc23)cc1 (stereo unspecified)			18.4 µM [falling, single point]
CN1C(=O)/C(=C/c2cn(CC(=O)N3CCCCC3)c3ccccc23)c2ccccc21	-1.7	1.84 µM [rising, partial curve]	1.84 µM [rising, partial curve]
O=C(O)c1ccc(N/N=C/c2cc(Br)cs2)cc1	18.5		14.6 µM [rising, single point]
Cc1ccc(-n2nc3c(=O)n(C(C)C(=O)NCCC4=CCCCC4)nc(C)c3c2C)cc1 (stereo unspecified)	2.64		
